Measured values from paper PMC8384837.
Where a chain is given by its changes, count along the chain named. This is one part of the list. For some of these results: At the low end of the ranking the order means little. For some of these results: The exact form of the protein is not confirmed.

Assays:
Conditions in all cases: yeast three-hybrid, YBZ-1, SC-Leu-His + 0.5 mM 3-AT, 4 days
[1] = molecular target: T1, PUM1 PUF domain R3-VRM C935V + Q939M (UniProt Q14671)
T1 sequence: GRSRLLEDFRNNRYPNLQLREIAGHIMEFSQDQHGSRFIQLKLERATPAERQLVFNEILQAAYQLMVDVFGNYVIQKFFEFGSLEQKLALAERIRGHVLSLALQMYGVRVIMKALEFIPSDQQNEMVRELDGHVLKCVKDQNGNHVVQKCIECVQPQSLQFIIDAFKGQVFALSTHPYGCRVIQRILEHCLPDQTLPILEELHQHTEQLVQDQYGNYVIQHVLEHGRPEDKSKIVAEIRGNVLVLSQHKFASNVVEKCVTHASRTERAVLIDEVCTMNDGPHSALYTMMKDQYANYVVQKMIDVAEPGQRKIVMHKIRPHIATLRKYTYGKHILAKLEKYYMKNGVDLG

[2] = molecular target: T2, PUM1 PUF domain R3-VRN C935V + Q939N (Homo sapiens) (UniProt Q14671)
T2 sequence: T1 sequence with M112N

[3] = molecular target: T3, PUM1 PUF domain R3-VRS C935V + Q939S (UniProt Q14671)
T3 sequence: T1 sequence with M112S

[4] = molecular target: T4, PUM1 PUF domain R3-VRT C935V + Q939T (UniProt Q14671)
T4 sequence: T1 sequence with M112T

[5] = molecular target: T5, PUM1 PUF domain R3-VRV C935V + Q939V (UniProt Q14671)
T5 sequence: T1 sequence with M112V

[6] = molecular target: T6, PUM1 PUF domain R3-VRW C935V + Q939W (UniProt Q14671)
T6 sequence: T1 sequence with M112W

[7] = molecular target: T7, PUM1 PUF domain R3-VRY C935V + Q939Y (UniProt Q14671)
T7 sequence: T1 sequence with M112Y

[8] = molecular target: T8, PUM1 PUF domain R3-VSK C935V + R936S + Q939K (UniProt Q14671)
T8 sequence: T1 sequence with R109S, M112K

[9] = molecular target: T9, PUM1 PUF domain R3-VWF C935V + R936W + Q939F (UniProt Q14671)
T9 sequence: T1 sequence with R109W, M112F

[10] = molecular target: T10, PUM1 PUF domain R3-VWG C935V + R936W + Q939G (Homo sapiens) (UniProt Q14671)
T10 sequence: T1 sequence with R109W, M112G

[11] = molecular target: T11, PUM1 PUF domain R3-VWP C935V + R936W + Q939P (UniProt Q14671)
T11 sequence: T1 sequence with R109W, M112P

[12] = molecular target: T12, PUM1 PUF domain R3-VYF C935V + R936Y + Q939F (UniProt Q14671)
T12 sequence: T1 sequence with R109Y, M112F

[13] = molecular target: T13, PUM1 PUF domain R3-VYG C935V + R936Y + Q939G (Homo sapiens) (UniProt Q14671)
T13 sequence: T1 sequence with R109Y, M112G

[14] = molecular target: T14, PUM1 PUF domain R3-VYP C935V + R936Y + Q939P (UniProt Q14671)
T14 sequence: T1 sequence with R109Y, M112P

[15] = molecular target: T15, PUM1 PUF domain R3-WAR C935W + R936A + Q939R (UniProt Q14671)
T15 sequence: T1 sequence with V108W, R109A, M112R

[16] = molecular target: T16, PUM1 PUF domain R3-WCA C935W + R936C + Q939A (UniProt Q14671)
T16 sequence: T1 sequence with V108W, R109C, M112A

[17] = molecular target: T17, PUM1 PUF domain R3-WCG C935W + R936C + Q939G (UniProt Q14671)
T17 sequence: T1 sequence with V108W, R109C, M112G

[18] = molecular target: T18, PUM1 PUF domain R3-WCS C935W + R936C + Q939S (UniProt Q14671)
T18 sequence: T1 sequence with V108W, R109C, M112S

[19] = molecular target: T19, PUM1 PUF domain R3-WFE C935W + R936F + Q939E (UniProt Q14671)
T19 sequence: T1 sequence with V108W, R109F, M112E

[20] = molecular target: T20, PUM1 PUF domain R3-WFG C935W + R936F + Q939G (UniProt Q14671)
T20 sequence: T1 sequence with V108W, R109F, M112G

[21] = molecular target: T21, PUM1 PUF domain R3-WWG C935W + R936W + Q939G (UniProt Q14671)
T21 sequence: T1 sequence with V108W, R109W, M112G

[22] = molecular target: T22, PUM1 PUF domain R3-WWQ C935W + R936W (UniProt Q14671)
T22 sequence: T1 sequence with V108W, R109W, M112Q

[23] = molecular target: T23, PUM1 PUF domain R3-WWR C935W + R936W + Q939R (UniProt Q14671)
T23 sequence: T1 sequence with V108W, R109W, M112R

[24] = molecular target: T24, PUM1 PUF domain R3-YCG C935Y + R936C + Q939G (UniProt Q14671)
T24 sequence: T1 sequence with V108Y, R109C, M112G

[25] = molecular target: T25, PUM1 PUF domain R3-YCV C935Y + R936C + Q939V (UniProt Q14671)
T25 sequence: T1 sequence with V108Y, R109C, M112V

[26] = molecular target: T26, PUM1 PUF domain R3-YFA C935Y + R936F + Q939A (Homo sapiens) (UniProt Q14671)
T26 sequence: T1 sequence with V108Y, R109F, M112A

[27] = molecular target: T27, PUM1 PUF domain R3-YRA C935Y + Q939A (UniProt Q14671)
T27 sequence: T1 sequence with V108Y, M112A

[28] = molecular target: T28, PUM1 PUF domain R3-YRE C935Y + Q939E (UniProt Q14671)
T28 sequence: T1 sequence with V108Y, M112E

[29] = molecular target: T29, PUM1 PUF domain R3-YRR C935Y + Q939R (UniProt Q14671)
T29 sequence: T1 sequence with V108Y, M112R

[30] = molecular target: T30, PUM1 PUF domain R3-YRS C935Y + Q939S (UniProt Q14671)
T30 sequence: T1 sequence with V108Y, M112S

[31] = molecular target: T31, PUM1 PUF domain R3-YRV C935Y + Q939V (UniProt Q14671)
T31 sequence: T1 sequence with V108Y, M112V

[32] = molecular target: T32, PUM1 PUF domain R3-YRW C935Y + Q939W (UniProt Q14671)
T32 sequence: T1 sequence with V108Y, M112W

[33] = molecular target: T33, PUM1 PUF domain R3-YSG C935Y + R936S + Q939G (UniProt Q14671)
T33 sequence: T1 sequence with V108Y, R109S, M112G

[34] = molecular target: T34, PUM1 PUF domain R3-YSV C935Y + R936S + Q939V (UniProt Q14671)
T34 sequence: T1 sequence with V108Y, R109S, M112V

[35] = molecular target: T35, PUM1 PUF domain R3-YWG C935Y + R936W + Q939G (UniProt Q14671)
T35 sequence: T1 sequence with V108Y, R109W, M112G

[36] = molecular target: T36, PUM1 PUF domain R5-PHQ R6-SWD C1007P + R1008H + N1043S + Y1044W + Q1047D (UniProt Q14671)
T36 sequence: T1 sequence with V108C, M112Q, C180P, R181H, N216S, Y217W, Q220D

[37] = molecular target: T37, PUM1 PUF domain R6-SWD R7-NPG N1043S + Y1044W + Q1047D + S1079N + N1080P + E1083G (Homo sapiens) (UniProt Q14671)
T37 sequence: T1 sequence with V108C, M112Q, N216S, Y217W, Q220D, S252N, N253P, E256G

In the case of “GGCUAGAACUAGUGGAUCCCCCGGCGCCCGGCGGCUCGAGCCCGGGUAAGUGUAACUAGUCUGCAUGCCGCCGGGCGCCAUGCCUGCAGGUCGACUCUAGAAAACAUG”, the binding signal (log2 enrichment (interaction score)) [1] is reported as less than -7.99, the binding signal (log2 enrichment (interaction score)) [2] is reported as -2.17 and the binding signal (log2 enrichment (interaction score)) [3] is reported as -3.89. For the same sequence, the binding signal (log2 enrichment (interaction score)) [4] was less than -7.08, the binding signal (log2 enrichment (interaction score)) [5] was -2.42 and the binding signal (log2 enrichment (interaction score)) [6] was less than -9.22. For the same sequence, the binding signal (log2 enrichment (interaction score)) [7] was less than -7.9, the binding signal (log2 enrichment (interaction score)) [8] was -4.49 and the binding signal (log2 enrichment (interaction score)) [9] was less than -7.52. It also gave a binding signal (log2 enrichment (interaction score)) [10] of -1.7, a binding signal (log2 enrichment (interaction score)) [11] of less than -9.14 and a binding signal (log2 enrichment (interaction score)) [12] of less than -8.62. For the same sequence, the binding signal (log2 enrichment (interaction score)) [13] was -0.74, the binding signal (log2 enrichment (interaction score)) [14] was less than -10.2 and the binding signal (log2 enrichment (interaction score)) [15] was -3.94. It also gave a binding signal (log2 enrichment (interaction score)) [16] of less than -8.49, a binding signal (log2 enrichment (interaction score)) [17] of less than -9.13 and a binding signal (log2 enrichment (interaction score)) [18] of less than -7.14. For the same sequence, the binding signal (log2 enrichment (interaction score)) [19] was less than -7.13, the binding signal (log2 enrichment (interaction score)) [20] was less than -9.55 and the binding signal (log2 enrichment (interaction score)) [21] was -5.25. The binding signal (log2 enrichment (interaction score)) [22] was less than -7.43, the binding signal (log2 enrichment (interaction score)) [23] was -6.33 and the binding signal (log2 enrichment (interaction score)) [24] was less than -7.92. It also gave a binding signal (log2 enrichment (interaction score)) [25] of less than -8.07, a binding signal (log2 enrichment (interaction score)) [26] of -1.92 and a binding signal (log2 enrichment (interaction score)) [27] of less than -8.3. For the same sequence, the binding signal (log2 enrichment (interaction score)) [28] was less than -7.36, the binding signal (log2 enrichment (interaction score)) [29] was -2.93 and the binding signal (log2 enrichment (interaction score)) [30] was less than -8.31. It also gave a binding signal (log2 enrichment (interaction score)) [31] of -3.43, a binding signal (log2 enrichment (interaction score)) [32] of less than -7.7 and a binding signal (log2 enrichment (interaction score)) [33] of -5.58. For the same sequence, the binding signal (log2 enrichment (interaction score)) [34] was less than -9.37, the binding signal (log2 enrichment (interaction score)) [35] was less than -7.14 and the binding signal (log2 enrichment (interaction score)) [36] was -8.75. It also gave a binding signal (log2 enrichment (interaction score)) [37] of -1.26.
